# Source: article PMC12727705
# Protein sequences, listed by entry. Tags and fused reporters are not part of them. Lines headed by an entry give the natural chain unless they say otherwise; changes in a name come on top.
# UniProt Q9BL39: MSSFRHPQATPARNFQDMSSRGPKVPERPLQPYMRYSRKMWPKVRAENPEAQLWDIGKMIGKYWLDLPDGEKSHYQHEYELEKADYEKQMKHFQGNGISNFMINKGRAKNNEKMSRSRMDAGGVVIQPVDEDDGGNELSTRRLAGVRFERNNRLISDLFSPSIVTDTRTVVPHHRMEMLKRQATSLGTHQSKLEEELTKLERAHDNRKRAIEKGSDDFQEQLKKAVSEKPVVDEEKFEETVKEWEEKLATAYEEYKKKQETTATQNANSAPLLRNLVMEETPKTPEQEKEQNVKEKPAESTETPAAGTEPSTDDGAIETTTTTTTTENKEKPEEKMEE
# UniProt Q22139: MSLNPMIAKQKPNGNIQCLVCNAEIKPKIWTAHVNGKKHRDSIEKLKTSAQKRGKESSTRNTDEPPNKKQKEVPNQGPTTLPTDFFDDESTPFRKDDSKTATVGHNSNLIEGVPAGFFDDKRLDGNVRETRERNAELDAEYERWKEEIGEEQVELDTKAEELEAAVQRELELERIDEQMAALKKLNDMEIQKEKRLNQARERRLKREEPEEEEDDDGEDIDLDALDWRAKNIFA
# UniProt P23678: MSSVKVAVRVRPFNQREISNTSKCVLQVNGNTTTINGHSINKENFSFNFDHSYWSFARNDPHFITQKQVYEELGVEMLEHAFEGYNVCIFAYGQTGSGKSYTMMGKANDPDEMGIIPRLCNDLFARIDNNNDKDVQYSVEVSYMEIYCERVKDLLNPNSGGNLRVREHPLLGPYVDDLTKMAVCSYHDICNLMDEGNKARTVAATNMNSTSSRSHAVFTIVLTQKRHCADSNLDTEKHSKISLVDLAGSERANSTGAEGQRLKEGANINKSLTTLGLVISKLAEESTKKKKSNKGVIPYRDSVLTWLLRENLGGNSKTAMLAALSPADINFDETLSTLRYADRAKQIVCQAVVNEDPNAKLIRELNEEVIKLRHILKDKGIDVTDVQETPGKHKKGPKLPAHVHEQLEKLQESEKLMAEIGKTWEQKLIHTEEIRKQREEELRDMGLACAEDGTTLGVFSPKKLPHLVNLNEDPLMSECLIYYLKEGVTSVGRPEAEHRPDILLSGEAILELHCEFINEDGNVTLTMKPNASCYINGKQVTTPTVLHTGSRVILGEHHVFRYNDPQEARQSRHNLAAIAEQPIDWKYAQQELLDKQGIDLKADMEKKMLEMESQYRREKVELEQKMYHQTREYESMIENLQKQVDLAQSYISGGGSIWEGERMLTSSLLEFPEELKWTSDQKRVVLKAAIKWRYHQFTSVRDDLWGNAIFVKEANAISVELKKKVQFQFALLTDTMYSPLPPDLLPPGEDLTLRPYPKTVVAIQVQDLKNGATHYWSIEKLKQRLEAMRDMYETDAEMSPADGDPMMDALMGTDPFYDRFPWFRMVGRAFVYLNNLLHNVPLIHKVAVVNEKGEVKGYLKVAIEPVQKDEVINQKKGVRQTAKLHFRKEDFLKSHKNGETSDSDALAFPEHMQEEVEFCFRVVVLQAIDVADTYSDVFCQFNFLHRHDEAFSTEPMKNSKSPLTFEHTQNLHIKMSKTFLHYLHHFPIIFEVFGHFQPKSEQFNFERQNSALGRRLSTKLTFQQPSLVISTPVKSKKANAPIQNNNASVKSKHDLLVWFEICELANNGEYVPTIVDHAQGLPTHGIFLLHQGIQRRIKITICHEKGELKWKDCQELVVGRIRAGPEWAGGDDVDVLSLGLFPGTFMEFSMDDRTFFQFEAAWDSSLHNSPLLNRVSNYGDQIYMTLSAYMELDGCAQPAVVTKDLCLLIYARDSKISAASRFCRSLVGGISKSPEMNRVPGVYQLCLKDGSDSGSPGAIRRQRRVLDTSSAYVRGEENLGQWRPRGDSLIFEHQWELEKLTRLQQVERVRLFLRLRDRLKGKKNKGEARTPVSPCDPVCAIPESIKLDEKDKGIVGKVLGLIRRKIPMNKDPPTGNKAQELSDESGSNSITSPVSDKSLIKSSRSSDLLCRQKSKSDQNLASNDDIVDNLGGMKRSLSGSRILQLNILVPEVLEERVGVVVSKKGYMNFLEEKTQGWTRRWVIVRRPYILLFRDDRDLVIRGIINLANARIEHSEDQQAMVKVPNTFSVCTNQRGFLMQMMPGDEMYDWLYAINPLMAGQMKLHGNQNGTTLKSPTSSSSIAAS
# UniProt G5EF53: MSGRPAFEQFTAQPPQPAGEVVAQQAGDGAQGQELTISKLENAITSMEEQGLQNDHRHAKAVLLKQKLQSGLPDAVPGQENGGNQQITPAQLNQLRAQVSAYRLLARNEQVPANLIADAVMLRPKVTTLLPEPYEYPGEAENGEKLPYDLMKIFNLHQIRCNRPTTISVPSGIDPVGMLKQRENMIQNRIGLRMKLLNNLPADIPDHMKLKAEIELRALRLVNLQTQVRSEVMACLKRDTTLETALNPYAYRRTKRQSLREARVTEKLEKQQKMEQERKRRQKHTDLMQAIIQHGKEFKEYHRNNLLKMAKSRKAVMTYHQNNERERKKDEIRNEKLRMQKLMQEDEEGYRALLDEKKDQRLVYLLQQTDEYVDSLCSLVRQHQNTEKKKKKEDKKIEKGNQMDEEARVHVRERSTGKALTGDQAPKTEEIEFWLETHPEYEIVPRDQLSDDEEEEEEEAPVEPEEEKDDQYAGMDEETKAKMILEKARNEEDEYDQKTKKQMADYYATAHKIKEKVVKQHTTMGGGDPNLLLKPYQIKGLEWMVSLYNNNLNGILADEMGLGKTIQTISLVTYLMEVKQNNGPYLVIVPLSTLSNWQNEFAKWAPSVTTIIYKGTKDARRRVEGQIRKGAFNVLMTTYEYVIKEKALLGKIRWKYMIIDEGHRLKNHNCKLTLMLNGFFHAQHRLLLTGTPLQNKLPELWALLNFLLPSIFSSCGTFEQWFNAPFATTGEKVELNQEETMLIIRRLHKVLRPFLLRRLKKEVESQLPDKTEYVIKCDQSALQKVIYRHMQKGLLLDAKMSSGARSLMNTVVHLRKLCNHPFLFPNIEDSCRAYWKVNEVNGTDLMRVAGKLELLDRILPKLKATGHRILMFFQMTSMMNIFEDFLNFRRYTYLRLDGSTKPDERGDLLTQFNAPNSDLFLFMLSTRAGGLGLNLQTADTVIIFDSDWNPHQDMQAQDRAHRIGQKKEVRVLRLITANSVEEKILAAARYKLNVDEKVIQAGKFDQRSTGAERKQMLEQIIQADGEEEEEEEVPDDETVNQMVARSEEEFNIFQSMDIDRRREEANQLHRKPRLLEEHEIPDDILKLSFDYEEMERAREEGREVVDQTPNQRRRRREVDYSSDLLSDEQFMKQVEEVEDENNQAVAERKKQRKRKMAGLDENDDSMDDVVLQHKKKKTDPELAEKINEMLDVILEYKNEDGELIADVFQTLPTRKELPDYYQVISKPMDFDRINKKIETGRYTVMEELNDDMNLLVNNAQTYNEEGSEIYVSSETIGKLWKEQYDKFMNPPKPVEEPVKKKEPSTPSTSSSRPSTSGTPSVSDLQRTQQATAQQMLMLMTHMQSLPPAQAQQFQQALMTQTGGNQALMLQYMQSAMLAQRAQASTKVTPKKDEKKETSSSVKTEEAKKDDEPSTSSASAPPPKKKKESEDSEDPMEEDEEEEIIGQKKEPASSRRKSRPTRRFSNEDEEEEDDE
# UniProt Q9U263: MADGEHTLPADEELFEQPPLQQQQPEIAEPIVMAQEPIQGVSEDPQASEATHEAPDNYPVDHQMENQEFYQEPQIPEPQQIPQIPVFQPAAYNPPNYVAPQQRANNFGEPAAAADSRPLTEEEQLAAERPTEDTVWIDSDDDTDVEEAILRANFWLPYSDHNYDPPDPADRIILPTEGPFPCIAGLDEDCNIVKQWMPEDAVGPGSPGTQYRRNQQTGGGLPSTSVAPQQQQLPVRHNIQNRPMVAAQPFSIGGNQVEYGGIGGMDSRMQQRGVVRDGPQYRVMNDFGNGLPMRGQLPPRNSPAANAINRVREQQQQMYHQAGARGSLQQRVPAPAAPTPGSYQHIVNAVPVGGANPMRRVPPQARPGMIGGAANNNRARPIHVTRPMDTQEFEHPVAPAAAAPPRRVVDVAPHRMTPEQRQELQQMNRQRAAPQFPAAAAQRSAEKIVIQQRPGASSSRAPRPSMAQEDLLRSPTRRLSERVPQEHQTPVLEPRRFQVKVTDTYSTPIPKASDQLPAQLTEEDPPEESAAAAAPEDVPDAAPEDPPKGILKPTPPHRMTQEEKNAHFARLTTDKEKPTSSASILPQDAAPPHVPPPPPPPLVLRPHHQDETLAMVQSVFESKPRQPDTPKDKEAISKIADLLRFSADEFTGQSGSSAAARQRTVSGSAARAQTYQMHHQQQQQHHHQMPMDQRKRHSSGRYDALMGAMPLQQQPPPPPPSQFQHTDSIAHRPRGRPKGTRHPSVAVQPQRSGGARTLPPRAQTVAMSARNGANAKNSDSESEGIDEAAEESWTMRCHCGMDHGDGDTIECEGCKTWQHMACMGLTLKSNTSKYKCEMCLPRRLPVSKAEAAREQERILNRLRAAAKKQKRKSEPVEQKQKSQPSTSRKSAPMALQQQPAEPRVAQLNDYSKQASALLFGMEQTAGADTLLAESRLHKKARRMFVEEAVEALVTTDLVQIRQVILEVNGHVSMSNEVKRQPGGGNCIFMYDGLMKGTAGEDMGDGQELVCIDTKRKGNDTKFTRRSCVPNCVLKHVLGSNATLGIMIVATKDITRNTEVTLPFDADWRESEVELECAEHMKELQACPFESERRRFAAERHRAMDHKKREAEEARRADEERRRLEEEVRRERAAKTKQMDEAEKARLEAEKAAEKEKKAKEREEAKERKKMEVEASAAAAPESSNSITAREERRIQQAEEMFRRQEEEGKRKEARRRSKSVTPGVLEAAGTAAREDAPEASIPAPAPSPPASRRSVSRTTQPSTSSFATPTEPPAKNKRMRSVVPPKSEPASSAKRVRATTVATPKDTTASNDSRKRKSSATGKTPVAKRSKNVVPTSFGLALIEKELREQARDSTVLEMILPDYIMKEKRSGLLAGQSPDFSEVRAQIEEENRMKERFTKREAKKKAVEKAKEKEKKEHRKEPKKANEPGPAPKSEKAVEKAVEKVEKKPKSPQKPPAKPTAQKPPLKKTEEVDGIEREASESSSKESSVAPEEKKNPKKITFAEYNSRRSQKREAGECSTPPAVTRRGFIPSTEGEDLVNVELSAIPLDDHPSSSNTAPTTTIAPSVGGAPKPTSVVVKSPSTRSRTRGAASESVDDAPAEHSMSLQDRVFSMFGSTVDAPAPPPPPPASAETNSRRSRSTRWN
# UniProt Q23165: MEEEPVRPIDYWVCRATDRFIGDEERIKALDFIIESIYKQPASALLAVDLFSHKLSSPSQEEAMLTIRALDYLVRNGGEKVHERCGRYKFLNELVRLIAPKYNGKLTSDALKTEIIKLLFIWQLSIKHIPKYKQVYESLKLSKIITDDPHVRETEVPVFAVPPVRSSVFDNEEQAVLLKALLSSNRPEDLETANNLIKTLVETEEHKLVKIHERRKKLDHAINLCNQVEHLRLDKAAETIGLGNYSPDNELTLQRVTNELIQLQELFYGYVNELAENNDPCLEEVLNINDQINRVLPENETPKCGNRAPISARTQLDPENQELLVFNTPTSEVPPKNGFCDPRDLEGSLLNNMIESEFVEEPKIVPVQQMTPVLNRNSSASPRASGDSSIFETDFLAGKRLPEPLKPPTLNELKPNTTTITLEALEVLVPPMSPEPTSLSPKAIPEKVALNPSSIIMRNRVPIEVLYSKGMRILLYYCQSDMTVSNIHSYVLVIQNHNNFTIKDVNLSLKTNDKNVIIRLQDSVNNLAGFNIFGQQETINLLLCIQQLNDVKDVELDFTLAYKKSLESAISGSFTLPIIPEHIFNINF
# UniProt Q9U2X0: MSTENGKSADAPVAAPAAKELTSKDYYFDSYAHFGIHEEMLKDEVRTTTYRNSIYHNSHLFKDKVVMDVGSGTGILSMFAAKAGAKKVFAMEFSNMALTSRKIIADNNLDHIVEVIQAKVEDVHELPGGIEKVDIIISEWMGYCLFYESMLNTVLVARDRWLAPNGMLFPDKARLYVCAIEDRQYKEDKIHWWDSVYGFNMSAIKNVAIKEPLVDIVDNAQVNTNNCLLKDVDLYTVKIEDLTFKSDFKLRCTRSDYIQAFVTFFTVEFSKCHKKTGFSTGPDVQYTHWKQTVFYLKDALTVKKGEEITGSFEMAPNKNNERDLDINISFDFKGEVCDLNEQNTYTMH
# Results are given in words; binding and its absence hold for the method and conditions named. In cells and extracts the contact can be indirect. Here binding means that the protein was enriched with, or labelled near, the bait; the list need not be complete. Tags and fused reporters may be left off the sequences shown.
# T1: DAF-16::TurboID::mNeongreen::3xFLAG (C. elegans) (UniProt O16850)
# T1 sequence: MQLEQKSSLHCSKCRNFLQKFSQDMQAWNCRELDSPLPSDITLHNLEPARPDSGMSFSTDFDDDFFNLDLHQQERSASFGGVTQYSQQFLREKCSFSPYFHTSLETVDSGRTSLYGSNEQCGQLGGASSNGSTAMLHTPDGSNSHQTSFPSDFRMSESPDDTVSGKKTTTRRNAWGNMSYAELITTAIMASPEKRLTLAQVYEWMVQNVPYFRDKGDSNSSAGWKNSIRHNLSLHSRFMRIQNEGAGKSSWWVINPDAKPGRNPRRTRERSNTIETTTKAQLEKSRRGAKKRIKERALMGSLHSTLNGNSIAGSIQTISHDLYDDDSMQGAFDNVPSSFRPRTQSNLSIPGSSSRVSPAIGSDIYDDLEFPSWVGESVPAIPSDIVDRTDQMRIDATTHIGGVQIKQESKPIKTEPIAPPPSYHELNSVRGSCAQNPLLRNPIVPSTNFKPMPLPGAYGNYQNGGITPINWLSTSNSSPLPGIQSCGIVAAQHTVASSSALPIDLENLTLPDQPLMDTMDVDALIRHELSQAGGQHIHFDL
# Target: T1, DAF-16::TurboID::mNeongreen::3xFLAG (C. elegans)
# Experiment: proximity labelling; TurboID fused to endogenous DAF-16 in living C. elegans, wild-type (cytoDAF-16) or daf-2(e1370) (nucDAF-16) background; L4/young adults, 1 mM biotin in M9 for 2 h at 21 °C; biotinylated proteins affinity purified on streptavidin and identified by mass spectrometry; control: wild type without …
row,Molecule,binding
1,SWSN-3 (from UniProt Q9BL39),binds
2,SEL-13 (from UniProt Q22139),binds
3,TMYB-1 (C. elegans (endogenous in C. elegans)),binds
4,MTCL-1 (C. elegans (endogenous in C. elegans)),binds
5,UNC-104 (from UniProt P23678 1-1584),binds
6,SWSN-1 (C. elegans (endogenous in C. elegans)),binds
7,PBRM-1 (C. elegans (endogenous in C. elegans)),binds
8,ZFH-2 (from UniProt V6CLN5 1-1615),binds
9,XPC-1 (from UniProt Q9N4C3),binds
10,SWSN-4 (from UniProt G5EF53 1-1474),binds
11,SET-26 (from UniProt Q9U263 1-1645) (enzyme),binds
12,PAR-1 (from UniProt Q9TW45 1-1192) (enzyme),binds
13,APT-9 (from UniProt Q23165),binds
14,PHD-10 (C. elegans (endogenous in C. elegans)),binds
15,PRMT-1 (from UniProt Q9U2X0 1-348) (enzyme),binds
16,"Grainyhead 1/GRH-1 (protein, UniProt G5EDF0 1-563) MSFQLDQSTSVIKTAPPGRLEFKNEPIDIASSNIQDLAKMQTLDGYYQQTSLQLPQSQQYHRMYENVYNNQQILYAQTQNFQYPSTLLTNGSLAQTEWRGQQMDTSAYSNTGYSRSSTSQQPQYTQQVTENERIVYKPVDMPSPVDSGIGGDISILNPKEEFFTSADGGSMLERSSERTLSHRDSPLVIPKLYNNLGFQYVLEAPISTSVRRDDDRMTYVNKGQFYTVSLEYTPDLNKCLKSQTVKSQLMVVFREDKTYEEEIKTWQSWHARQHVSKQRILEIDSKNSSGMIGQIEEIGNNAVQFYWNPSDPSGVRISIAVQCLSTDFSTQKGVKGLPLHVQIDTYDGENDKVPFHRGYCQIKVFCDKGAERKLRDEDKRAQKRKVQEYTAGALPGGRKKSDGEYHDQCERSEFYHMRELDKPAALFIAPEEFEPRYVDSTSLSFDMSEIEPIPTKRPRTSERIMLYVRKRDEQIYQPLHVVPASLSGLALAIANKFGADPDKMSGVYKRCAKGITVKVDDEMLRLYCNEDTFIIDVEHATDGSTAATLIEVAPTNPNSYSNS",binds
17,"RFC-4 (protein, UniProt P53016 1-334) MEEPMEVDNKRPKVLTWTEKYRPKTLDDIAYQDEVVTMLKGALQGRDLPHLLFYGPPGTGKTSAALAFCRQLFPKNIFHDRVLDLNASDERGIAVVRQKIQSFSKSSLGHSHREDVLKLKIIILDEVDAMTREAQAAMRRVIEDFSKTTRFILICNYVSRLIPPVVSRCAKFRFKSLPAEIQVQRLRTICDAEGTPMSDDELKQVMEYSEGDLRRAVCTLQSLAPILKSGDDNARNCYLRGSSDSLLISNVCKSILTADVPQIIALTKDITKSCTGVAFIRRCFQQLMDEDVINDENIGVMGKLVATCEKRILDGCDLENNLLDFLLTLRETIQ",binds
18,"OSM-3 (protein, UniProt P46873 1-699) MAESVRVAVRCRPFNQREKDLNTTLCVGMTPNVGQVNLNAPDGAAKDFTFDGAYFMDSTGEQIYNDIVFPLVENVIEGYNGTVFAYGQTGSGKTFSMQGIETIPAQRGVIPRAFDHIFTATATTENVKFLVHCSYLEIYNEEVRDLLGADNKQKLEIKEQPDRGVYVAGLSMHVCHDVPACKELMTRGFNNRHVGATLMNKDSSRSHSIFTVYVEGMTETGSIRMGKLNLVDLAGSERQSKTGATGDRLKEATKINLSLSALGNVISALVDGKSKHIPYRDSKLTRLLQDSLGGNTKTIMIACVSPSSDNYDETLSTLRYANRAKNIKNKPTINEDPKDALLREYQEEIARLKSMVQPGAVGVGAPAQDAFSIEEERKKLREEFEEAMNDLRGEYEREQTSKAELQKDLESLRADYERANANLDNLNPEEAAKKIQQLQDQFIGGEEAGNTQLKQKRMKQLKEAETKTQKLAAALNVHKDDPLLQVYSTTQEKLDAVTSQLEKEVKKSKGYEREIEDLHGEFELDRLDYLDTIRKQDQQLKLLMQIMDKIQPIIKKDTNYSNVDRIKKEAVWNEDESRWILPEMSMSRTILPLANNGYMQEPARQENTLLRSNFDDKLRERLAKSDSENLANSYFKPVKQINVINKYKSDQKLSTSKSLFPSKTPTFDGLVNGVVYTDALYERAQSAKRPPRLASLNPK",binds
19,"SYD-1 (protein, UniProt Q86NH1 1-987) MLISTSLKFLTMLTSNGFGGTNPPKGMPYPPTYLYTEEPQNECCCCWLCRLLCCCSPVDQTASRSRMNASQPPPGGGGRLPDEVFRKITAVDQGQSTLTQSGIQGLSARTLSSEPRGDLVFQLVEIIKKPGQSLGLYLREGNGKDRSDGVFVSRFGDNSELAKYGEVMRPGDEILTINNVEVSMMSIDDVVLILSIPRRLLLRIRYSKSMRHEIISSRSRESERPVVVFHKYDDRRDSETNAPILSQPTSTANTWLGKKSRQQMEEMRNATTSSTLRTHASTSSPRNHFAPRLVNGHSHSIGVPSASTTSHDHQYQRFASEPSDSVSRTARVPPPRLASATVRRTESFNSAPGVSTSAPMYTLPRSSTAVPPPDILGSIPYSARDPLMRSSADLPYDPMTGRLSSSVPTDPLLSRSLCSPILPRTLRQANDSNKSNSLPRRRIMTGGRNVKWRNDVVSTSDLCGEESDGAISAPEYSSPPFSRLTQQQQFRLSNGSPGRTVNDIFSAAEYRNWAGPYDPRGMYGPFPPGQRATRWSHTYGEQRAPRTSSLPGRTVLAQSLVGSPVLPRHPPPIVQDRPSAVFDRYHVSPLMNRRAPLRAAGPGINVDRLSVSSLTGILYVHIVEGRGLKIPEKQKGLTEEMYCVLEVDEQHRARTGVSTIEQKFKWRETFHIDVVNATVSNFFVYSWHPQFRHKLCHKGSLKLLEAFVVDQLNDDRVFALNLEPRGQLIVRIGFHDLQAVFRRTVNPRLNGVFGISLSRLVQRERRDTPIVLTRLIQEIEKRGVDYSGLYVLCGSVEKKKMLRAELESNPLGTELAAESIPDTNVIACLIKDFLRELPEPLISPQIHGMLLEAASVALPNDVQTNRHLVLKIIDCLQLSAKNCLLLVLDHLSTVLCSSPHNGLTPTRLSLIFAPLLFFCLDTFSPYTISPTSKMAAVRTLDINQASSSLQMILSIWPSRVNSESGSDSPATTCQKGGVIAYVSESQC",binds
20,"SIR-2.1 (enzyme, UniProt Q21921 1-607) MSRDSGNDSEVAVTHGEVQEITEENPEIGSMHITQETDISDAPETNTDSSRQRTESTTSVSSESWQNNDEMMSNLRRAQRLLDDGATPLQIIQQIFPDFNASRIATMSENAHFAILSDLLERAPVRQKLTNYNSLADAVELFKTKKHILVLTGAGVSVSCGIPDFRSKDGIYARLRSEFPDLPDPTAMFDIRYFRENPAPFYNFAREIFPGQFVPSVSHRFIKELETSGRLLRNYTQNIDTLEHQTGIKRVVECHGSFSKCTCTRCGQKYDGNEIREEVLAMRVAHCKRCEGVIKPNIVFFGEDLGREFHQHVTEDKHKVDLIVVIGSSLKVRPVALIPHCVDKNVPQILINRESLPHYNADIELLGNCDDIIRDICFSLGGSFTELITSYDSIMEQQGKTKSQKPSQNKRQLISQEDFLNICMKEKRNDDSSDEPTLKKPRMSVADDSMDSEKNNFQEIQKHKSEDDDDTRNSDDILKKIKHPRLLSITEMLHDNKCVAISAHQTVFPGAECSFDLETLKLVRDVHHETHCESSCGSSCSSNADSEANQLSRAQSLDDFVLSDEDRKNTIHLDLQRADSCDGDFQYELSETIDPETFSHLCEEMRI",binds
